Data published in article PMC5989226 (Nature Communications, 2018).
Results are given in words; binding and its absence hold for the method and conditions named. In cells and extracts the contact can be indirect. A yes stands for co-enrichment or nearness to the bait. Other partners may have been found. Tags and fused reporters may be left off the sequences shown. Values belong to the binder of their own block, whether it stands above or below them.

Biological target: T1, YFP-AHG1 (in transgenic Arabidopsis YFP-AHG1ox plants) (Arabidopsis) (UniProt Q9FLI3)
T1 sequence: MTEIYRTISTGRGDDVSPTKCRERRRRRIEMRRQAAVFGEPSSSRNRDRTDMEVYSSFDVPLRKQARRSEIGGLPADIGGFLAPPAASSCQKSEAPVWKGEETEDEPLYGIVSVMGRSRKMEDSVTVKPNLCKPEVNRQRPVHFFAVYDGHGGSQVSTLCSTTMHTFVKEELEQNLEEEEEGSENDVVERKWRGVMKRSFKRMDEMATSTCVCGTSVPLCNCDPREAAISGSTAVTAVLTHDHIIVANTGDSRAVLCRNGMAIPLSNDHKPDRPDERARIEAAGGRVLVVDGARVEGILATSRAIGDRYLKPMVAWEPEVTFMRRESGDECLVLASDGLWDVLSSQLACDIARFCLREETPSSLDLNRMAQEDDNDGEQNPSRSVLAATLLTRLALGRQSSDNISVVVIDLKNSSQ
Test: affinity purification with mass spectrometry; whole-protein extracts of 3-week-old YFP-AHG1ox (control YFPox) Arabidopsis plants, with or without 100 μM ABA, on an anti-GFP affinity column; eluted at pH 3.0; LC-MS/MS of three independent samples

- binding: binds
B1: DELAY OF …ON1 (DOG1), endogenous (protein, UniProt A0SVK0 1-291)
chain: MGSSSKNIEQAQDSYLEWMSLQSQRIPELKQLLAQRRSHGDEDNDNKLRKLTGKIIGDFKNYAAKRADLAHRCSSNYYAPTWNSPLENALIWMGGCRPSSFFRLVYALCGSQTEIRVTQFLRNIDGYESSGGGGGASLSDLSAEQLAKINVLHVKIIDEEEKMTKKVSSLQEDAADIPIATVAYEMENVGEPNVVVDQALDKQEEAMARLLVEADNLRVDTLAKILGILSPVQGADFLLAGKKLHLSMHEWGTMRDRRRRDCMVDTEVIFDACTTVNSGPRPTETTNNERN

- binding: binds
B2: TOPLESS (TPL), endogenous (protein, UniProt Q94AI7 1-1131)
chain: MSSLSRELVFLILQFLDEEKFKETVHKLEQESGFFFNMKYFEDEVHNGNWDEVEKYLSGFTKVDDNRYSMKIFFEIRKQKYLEALDKHDRPKAVDILVKDLKVFSTFNEELFKEITQLLTLENFRENEQLSKYGDTKSARAIMLVELKKLIEANPLFRDKLQFPTLRNSRLRTLINQSLNWQHQLCKNPRPNPDIKTLFVDHSCGPPNGARAPSPVNNPLLGGIPKAGGFPPLGAHGPFQPTASPVPTPLAGWMSSPSSVPHPAVSAGAIALGGPSIPAALKHPRTPPTNASLDYPSADSEHVSKRTRPMGISDEVNLGVNMLPMSFSGQAHGHSPAFKAPDDLPKTVARTLSQGSSPMSMDFHPIKQTLLLVGTNVGDIGLWEVGSRERLVQKTFKVWDLSKCSMPLQAALVKEPVVSVNRVIWSPDGSLFGVAYSRHIVQLYSYHGGEDMRQHLEIDAHVGGVNDISFSTPNKQLCVITCGDDKTIKVWDAATGVKRHTFEGHEAPVYSVCPHYKENIQFIFSTALDGKIKAWLYDNMGSRVDYDAPGRWCTTMAYSADGTRLFSCGTSKDGESFIVEWNESEGAVKRTYQGFHKRSLGVVQFDTTKNRYLAAGDDFSIKFWDMDAVQLLTAIDGDGGLQASPRIRFNKEGSLLAVSGNENVIKIMANSDGLRLLHTFENISSESSKPAINSIAAAAAAAATSAGHADRSANVVSIQGMNGDSRNMVDVKPVITEESNDKSKIWKLTEVSEPSQCRSLRLPENLRVAKISRLIFTNSGNAILALASNAIHLLWKWQRNERNATGKATASLPPQQWQPASGILMTNDVAETNPEEAVPCFALSKNDSYVMSASGGKISLFNMMTFKTMATFMPPPPAATFLAFHPQDNNIIAIGMDDSTIQIYNVRVDEVKSKLKGHSKRITGLAFSNVLNVLVSSGADAQLCVWNTDGWEKQRSKVLPLPQGRPNSAPSDTRVQFHQDQAHFLVVHETQLAIYETTKLECMKQWAVRESLAPITHATFSCDSQLVYASFMDATVCVFSSANLRLRCRVNPSAYLPASLSNSNVHPLVIAAHPQEPNMFAVGLSDGGVHIFEPLESEGKWGVAPPAENGSASGAPTAPSVGASASDQPQR

- binding: binds
B3: ABI FIVE BINDING PROTEIN 2 (AFP2), endogenous (protein, UniProt Q9LMX5 1-348)
chain: MGEASRQQRAWNREMTVTTNLSLDIDKYPRDLLRGFMSENGGGRVFHGGETNCDDESTIELNLGLSLGGRFGVDKTPRKLKRSSSVLDTVPFNDSTVAEPENYTVGLERTTSLPAEMEEEWRKRKEMQSLRRMEAKRRRCEKQSFRVGNSDDQTVSFENERWVTASKSGFLQRHLVSSNRQVCGVDSDGGGATGGGSSSSLSELDNKNQQGSSNSCNDERSPKIVAGCSSNSGSQGTERPSVTRANKVNENENEKRVRSEDSVDRKGKGMATSTGLVDMPCVFTKGDGPNGRRVDGILYKYGKGEEVRIMCICHGSFLTPAEFVKHGGGGDVDRPLRHIVVNTSSSTF

- binding: binds
B4: FVE/MSI4, endogenous (protein, UniProt O22607 1-507)
chain: MESDEAAAVSPQATTPSGGTGASGPKKRGRKPKTKEDSQTPSSQQQSDVKMKESGKKTQQSPSVDEKYSQWKGLVPILYDWLANHNLVWPSLSCRWGPQLEQATYKNRQRLYLSEQTDGSVPNTLVIANCEVVKPRVAAAEHISQFNEEARSPFVKKYKTIIHPGEVNRIRELPQNSKIVATHTDSPDVLIWDVETQPNRHAVLGAANSRPDLILTGHQDNAEFALAMCPTEPFVLSGGKDKSVVLWSIQDHITTIGTDSKSSGSIIKQTGEGTDKNESPTVGPRGVYHGHEDTVEDVAFSPTSAQEFCSVGDDSCLILWDARTGTNPVTKVEKAHDADLHCVDWNPHDDNLILTGSADNTVRLFDRRKLTANGVGSPIYKFEGHKAAVLCVQWSPDKSSVFGSSAEDGLLNIWDYDRVSKKSDRAAKSPAGLFFQHAGHRDKVVDFHWNASDPWTIVSVSDDCETTGGGGTLQIWRMSDLIYRPEEEVVAELEKFKSHVMTCASKP
